Laboratory results: PubChem BioAssay AID1224830 (NIAID, 2016)
The whole screen tested about 18,000 reagents; shown is a random part of them. About 2,900 of them (16%) count as active. 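Calls are made per well; low scores hint the gene aids the LPS response, high scores that it dampens it.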 Repeated entries: four replicate wells of each siRNA pool.

Test: 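Host factors that control LPS-induced TNF expression in human macrophages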 (primary screen)
Cells: human THP-1 monocytic leukaemia cells, TNF dual-luciferase reporter clone, PMA-differentiated to macrophage-like cells
Knock-down reagent: siRNA pool against human genes, 50 nM
Duration: LPS for 4 h, given about 3 days after siRNA transfection
Treatment: bacterial LPS (TLR4 ligand), 10 ng/ml
Measurement: 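TNF firefly reporter luminescence divided by renilla, normalised to the plate median, then turned into a robust z-score for each replicate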
Direction: TNF reporter robust z-score: higher = stronger TNF reporter response to LPS
Call rule: 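a well is active when its z-score exceeds 2.8 or falls below -1.5; control wells carry no call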

| gene knocked down | TNF reporter robust z-score | call |
| --- | --- | --- |
| GPR42 | -0.79 | inactive |
| GPR42 | 0.25 | inactive |
| GPR42 | 1.52 | inactive |
| GPR42 | 1.4 | inactive |
| NCCRP1 | 0.16 | inactive |
| NCCRP1 | 0.91 | inactive |
| NCCRP1 | 1.43 | inactive |
| NCCRP1 | 0.49 | inactive |
| RPRD2 | -1.27 | inactive |
| RPRD2 | -1.08 | inactive |
| RPRD2 | -1.38 | inactive |
| RPRD2 | -0.61 | inactive |
| PTPRN | -0.49 | inactive |
| PTPRN | -1.12 | inactive |
| PTPRN | -0.36 | inactive |
| CACYBP | 0.36 | inactive |
| CACYBP | 1.03 | inactive |
| CACYBP | 0.26 | inactive |
| CACYBP | 1.22 | inactive |
| RNPEP | -0.01 | inactive |
| RNPEP | -1.04 | inactive |
| RNPEP | 0.04 | inactive |
| RNPEP | 0.01 | inactive |
| CD300LG | 0.41 | inactive |
| CD300LG | -0.3 | inactive |
| CD300LG | 2.22 | inactive |
| CD300LG | 1.4 | inactive |
| OTULIN | -0.26 | inactive |
| OTULIN | -0.29 | inactive |
| OTULIN | 0.03 | inactive |
| TSLIG3B | 0.38 | inactive |
| TSLIG3B | 0.72 | inactive |
| TSLIG3B | -0.34 | inactive |
| TSLIG3B | 0.01 | inactive |
| PARP9 | -0.55 | inactive |
| PARP9 | -0.43 | inactive |
| PARP9 | -1.05 | inactive |
| PARP9 | -0.35 | inactive |
| TMEM63A | -0.53 | inactive |
| TMEM63A | -0.35 | inactive |
| TMEM63A | -0.43 | inactive |
| TMEM63A | -0.49 | inactive |
| MCOLN3 | 1.01 | inactive |
| MCOLN3 | 1.45 | inactive |
| MCOLN3 | -0.23 | inactive |
| MCOLN3 | -0.69 | inactive |
| TBCE | 0.21 | inactive |
| TBCE | -0.29 | inactive |
| TBCE | 0.07 | inactive |
| TBCE | 1.63 | inactive |
| STK38 | 1.23 | inactive |
| STK38 | 0.33 | inactive |
| STK38 | 0.62 | inactive |
| STK38 | 0.79 | inactive |
| LCMT1 | 1.73 | inactive |
| LCMT1 | -0.26 | inactive |
| LCMT1 | -0.16 | inactive |
| LCMT1 | -0.61 | inactive |
| NPY4R | 1.13 | inactive |
| NPY4R | 1.3 | inactive |
| NPY4R | 0.58 | inactive |
| NPY4R | 0.96 | inactive |
| ERC1 | -1.82 | active |
| ERC1 | -1.83 | active |
| ERC1 | -1.8 | active |
| ERC1 | -1.62 | active |
| CYSLTR2 | -0.28 | inactive |
| CYSLTR2 | -0.17 | inactive |
| CYSLTR2 | -0.24 | inactive |
| CYSLTR2 | 0.13 | inactive |
| KIF24 | -1.55 | active |
| KIF24 | -0.65 | inactive |
| KIF24 | -1.25 | inactive |
| KIF24 | -0.75 | inactive |
| SREK1IP1 | -0.33 | inactive |
| SREK1IP1 | 0.77 | inactive |
| SREK1IP1 | -0.22 | inactive |
| SREK1IP1 | -0.12 | inactive |
| PPP1R13B | 0.41 | inactive |
| PPP1R13B | -1.1 | inactive |
| PPP1R13B | 0.46 | inactive |
| PPP1R13B | -0.32 | inactive |
| TMEM126B | -0.06 | inactive |
| TMEM126B | 0.99 | inactive |
| TMEM126B | 0.93 | inactive |
| TMEM126B | -0.09 | inactive |
| YWHAG | -1.01 | inactive |
| YWHAG | -1.45 | inactive |
| YWHAG | -1.87 | active |
| YWHAG | -1.38 | inactive |
| PECAM1 | 0.01 | inactive |
| PECAM1 | 0.21 | inactive |
| PECAM1 | -0.67 | inactive |
| PECAM1 | 0.54 | inactive |
| GRIN1 | 1.66 | inactive |
| GRIN1 | 0.33 | inactive |
| GRIN1 | 0.58 | inactive |
| GRIN1 | 0.34 | inactive |
| PGM2L1 | -0.34 | inactive |
| PGM2L1 | -0.11 | inactive |
| PGM2L1 | 0.1 | inactive |
| PGM2L1 | -0.01 | inactive |
| OR6K3 | 0.86 | inactive |
| OR6K3 | -0.02 | inactive |
| OR6K3 | 0.51 | inactive |
| OR6K3 | -0.04 | inactive |
| LYLDT1 | -0.15 | inactive |
| LYLDT1 | -0.9 | inactive |
| LYLDT1 | 0.37 | inactive |
| LYLDT1 | 0.03 | inactive |
| TXNDC16 | -1.72 | active |
| TXNDC16 | -1.47 | inactive |
| TXNDC16 | -1.48 | inactive |
| TXNDC16 | -1.18 | inactive |
| HOXB13 | -0.31 | inactive |
| HOXB13 | 1.2 | inactive |
| HOXB13 | 0.59 | inactive |
| HOXB13 | 1.07 | inactive |
| SERPINI1 | -0.09 | inactive |
| SERPINI1 | -0.47 | inactive |
| SERPINI1 | 0.43 | inactive |
| SERPINI1 | -0.16 | inactive |
| POLG2 | 0.25 | inactive |
| POLG2 | 0.56 | inactive |
| POLG2 | 0.44 | inactive |
| POLG2 | -0.25 | inactive |
| CKMT1A | -0.01 | inactive |
| CKMT1A | 0.34 | inactive |
| CKMT1A | 0.35 | inactive |
| CKMT1A | 0.48 | inactive |
| WRNIP1 | 2.33 | inactive |
| WRNIP1 | 0.17 | inactive |
| WRNIP1 | 2.39 | inactive |
| WRNIP1 | 1.59 | inactive |
| GTF2E1 | -0.14 | inactive |
| GTF2E1 | -0.85 | inactive |
| GTF2E1 | -0.46 | inactive |
| GTF2E1 | 0.01 | inactive |
| HIPK3 | -1.43 | inactive |
| HIPK3 | -1.14 | inactive |
| HIPK3 | 0.87 | inactive |
| HIPK3 | 1.02 | inactive |

Entries listed above marked active:
| gene knocked down | TNF reporter robust z-score | call |
| --- | --- | --- |
| ERC1 | -1.82 | active |
| ERC1 | -1.83 | active |
| ERC1 | -1.8 | active |
| ERC1 | -1.62 | active |
| KIF24 | -1.55 | active |
| YWHAG | -1.87 | active |
| TXNDC16 | -1.72 | active |
